# Hit rate of the full screen: of about 330,000 compounds, about 1,000 (0.3%) were called active. Inconclusive results, whose numbers are uncertain, are shown with a selection of clear calls. The call rests on the fitted dose curve; in most records, active means well fitted inhibition curve with a large enough effect; inconclusive means small, poorly fitted or top-dose-only effect; inactive means no such curve, though single readings can be large or run the other way; tested in mouse RAW 264.7 cells. Potencies beside an inconclusive call are fits to weak or partial responses and may not hold up.
# Test: qHTS for Inhibitors of Cell Surface uPA Generation; further: nearly all actives have a fitted effect of over 55% in size
# Conditions: cell surface uPA generation assay; series mostly up to 38.3 µM
# Summary of the method: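 Murine RAW 264.7 cells are treated for 24 h with compound up to 38.3 uM final. Cell ATP, measured by ATP-Lite, remains high if blocking the uPA cascade prevents LF from reaching the cytoplasm.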
# Potency means the concentration at half of the fitted maximal effect.
row,Compound,Potency
1,Cc1ccc(NC(=O)COc2ccccc2C(N)=O)cc1S(=O)(=O)N1CCCCCC1,inactive
2,C=CC[C@H](CC(=O)N[C@H](CO)Cc1ccccc1)C(=O)N[C@@H](COC(=O)[C@@H](CC=C)CC(=O)OC(C)(C)C)Cc1c[nH]c2ccccc12,"inconclusive: 12.6 µM [inhibitor, single point]"
3,COC(=O)N1C(=O)[C@](Cc2ccccc2)(c2ccccc2)N1C(=O)OC,"inconclusive: 11.2 µM [inhibitor, partial curve]"
4,COc1ccc(CN(C)C(=O)c2ccc3c(=O)n4c(nc3c2)CCC4)cc1,inactive
5,C[C@H]1O[C@@H](n2cc(F)c(=O)[nH]c2=O)[C@H](O)[C@@H]1O,"inconclusive: 12.6 µM [inhibitor, single point]"
6,O=c1c2ccccc2nc(/C=C/c2cc(Br)ccc2O)n1CCO,"inconclusive: 8.91 µM [inhibitor, single point]"
7,Cc1nc2c(ccc3nc(NC(=O)c4ccc(S(=O)(=O)N(C)C)cc4)sc32)s1,inactive
8,O=C(COC(=O)CCNS(=O)(=O)c1ccccc1)Nc1ccc(OC(F)F)cc1,"inconclusive: 2.82 µM [inhibitor, single point]"
9,CN1CCN(Cc2c(C(=O)N/N=C/c3cccc(Br)c3)nnn2-c2nonc2N)CC1,"inconclusive: 1 µM [inhibitor, single point]"
10,COc1cc(/C=N/NC(=O)c2cc(-c3c(C)nn(-c4ccccc4)c3C)n[nH]2)ccc1O,"inconclusive: 10 µM [inhibitor, partial curve, poor fit]"
11,COc1ccc(C(=O)c2coc3ccc(O)c(CN4CCCCC4)c23)cc1,"inconclusive: 22.4 µM [inhibitor, single point]"
12,CC1(C)Cc2c(c(-c3ccco3)nc3sc4c(NCCCO)ncnc4c23)CO1,"inconclusive: 7.08 µM [inhibitor, single point]"
13,O=C(Cn1nnc(-c2ccccc2)n1)N/N=C/c1cc([N+](=O)[O-])ccc1O,inactive
14,CN(CC(=O)Nc1cc(S(=O)(=O)N2CCCC2)ccc1Cl)Cc1cccs1,"inconclusive: 28.2 µM [inhibitor, single point]"
15,COc1ccc(-c2cc3ccc(OCC(=O)NCC4CCC(C(=O)O)CC4)cc3oc2=O)cc1 (stereo not given),"inconclusive: 3.55 µM [inhibitor, full curve]"
16,Cc1cccc2cc(CN(Cc3ccc4c(c3)OCO4)Cc3nnnn3C3CCCC3)c(=O)[nH]c12,"inconclusive: 7.94 µM [inhibitor, single point]"
17,COc1cccc(NC(=O)C(=O)c2cn(CC(=O)N3CCOCC3)c3ccccc23)c1,"inconclusive: 5.01 µM [inhibitor, partial curve, poor fit]"
18,O=C(Nc1ccc2nc(-c3cccnc3)[nH]c2c1)c1ccco1,"inconclusive: 7.94 µM [inhibitor, partial curve, poor fit]"
19,CC(C)(C)OC(=O)N1CCC(CC2CC(c3ccc(Cl)cc3)=NO2)(C(=O)NCC2CCCCC2)CC1 (stereo not given),"inconclusive: 12.6 µM [inhibitor, single point]"
20,Cc1ccc(S(=O)(=O)NNc2ccccc2)c(C)c1,inactive
21,O=C(Nc1ccc2c(c1)OCO2)c1ccc(CO)cc1,"inconclusive: 11.2 µM [inhibitor, partial curve]"
22,Cc1ccc2nc(NC(=O)c3ccc4ncsc4c3)sc2c1,"inconclusive: 14.1 µM [inhibitor, single point]"

row,Compound,Potency
1,O=C(COc1ccccc1[N+](=O)[O-])Nc1cccc(Cl)c1N1CCOCC1,active: 10 µM
2,CCCCOc1ccc(-c2ncc(N)cn2)cc1,"inconclusive: 5.01 µM [inhibitor, partial curve, poor fit]"
3,COc1ccc2cc(-c3ccccc3F)ncc2c1,"inconclusive: 11.2 µM [inhibitor, partial curve, poor fit]"
4,Cc1nc2scc(C)n2c(=O)c1S(=O)(=O)Nc1ccc(N2CCN(C(=O)C(C)C)CC2)cc1,"inconclusive: 12.6 µM [inhibitor, single point]"
5,COc1c(C)c2c(c(O)c1C/C=C(\C)CCC(=O)O)C(=O)OC2,"inconclusive: 0.316 µM [inhibitor, full curve, poor fit]"
6,CCN(CC)c1ccc(NC(=O)Cn2cc3c(n2)CCC(C)C3)c(C)c1 (stereo not given),"inconclusive: 12.6 µM [inhibitor, single point]"
7,COc1ccc(Cl)cc1C(=O)OCC(=O)Nc1cccnc1Cl,"inconclusive: 0.0158 µM [inhibitor, partial curve, poor fit]"
8,Cc1noc(C)c1-c1ccc2ncnc(NC(C)c3ccco3)c2c1 (stereo not given),"inconclusive: 10 µM [inhibitor, single point]"
9,Cc1ccccc1N1CCN(C(=O)c2cc(C3CC3)nn2-c2ccccc2)CC1,"inconclusive: 12.6 µM [inhibitor, single point]"
10,Cc1ccc(N2CN(S(=O)(=O)c3cccc([N+](=O)[O-])c3)c3nc4ccccc4nc32)cc1,inactive
11,Cc1ccc(S(=O)(=O)N(C)C)cc1NC(=O)COC(=O)c1ccc2c(=O)n3c(nc2c1)CCC3,"inconclusive: 28.2 µM [inhibitor, single point]"
12,N#CC1=C(N)NC(SCc2ccc(Cl)cc2)=C(C#N)C12CCCCC2,inactive
13,CCCCCOCC1CC(C/C(C)=N/NC(N)=S)C(=O)O1 (stereo not given),inactive
14,O=C(C[C@H]1C[C@H](C(=O)N2CCOCC2)[C@@]2(CCC3CCCC3)c3[nH]c4cc(-c5ccco5)ccc4c3CCN2C1=O)NCCN1CCOCC1,"inconclusive: 31.6 µM [inhibitor, partial curve, poor fit]"
15,O=C(c1ccc(Br)o1)N(Cc1ccccc1)Cc1ccccc1,"inconclusive: 1 µM [inhibitor, partial curve, poor fit]"
16,O=C(CCC1CCCCC1)NCc1cccs1,inactive
17,Cc1ccc(C(=O)C2CC2)cc1C,inactive
18,Nc1cc(S(=O)(=O)Nc2ccccc2Cl)ccc1N1CCCCC1,"inconclusive: 12.6 µM [inhibitor, single point]"
19,Cc1ccc(S(=O)(=O)N2CCCCC2CCNC(=O)C(=O)NCc2ccccc2)cc1 (stereo not given),active: 8.91 µM
20,CN(C)S(=O)(=O)c1cccc(NC(=O)c2cccc(S(=O)(=O)N3CCc4ccccc43)c2)c1,"inconclusive: 7.08 µM [inhibitor, single point]"
21,COc1ccc(COc2cc(-c3cccc(OC)c3)nc3ccc(N)cc23)cc1,active: 1.12 µM
22,O=C1C2C(c3ccccc3)CC=CC2[C@H](c2ccoc2)N1Cc1ccccc1 (stereo not given in full),"inconclusive: 7.08 µM [inhibitor, partial curve, poor fit]"

# Reprinted from above for reference:
row,Compound,Potency
11,Cc1ccc(S(=O)(=O)N(C)C)cc1NC(=O)COC(=O)c1ccc2c(=O)n3c(nc2c1)CCC3,"inconclusive: 28.2 µM [inhibitor, single point]"
12,N#CC1=C(N)NC(SCc2ccc(Cl)cc2)=C(C#N)C12CCCCC2,inactive
13,CCCCCOCC1CC(C/C(C)=N/NC(N)=S)C(=O)O1 (stereo not given),inactive

# Further structures

row,Compound,Potency
1,COCCCNC(=O)Cc1c(C)c2c(cc(C)c3c(C(C)(C)C)coc32)oc1=O,active: 0.282 µM
2,COc1ccc(-c2cc(C)no2)cc1S(=O)(=O)NCC1CCN(Cc2cc(C)ccc2C)CC1,"inconclusive: 10 µM [inhibitor, single point]"
3,CC(C)(Cc1ccc(O)cc1)NC(=O)CC(=O)N/N=C/c1ccc(Cl)cc1,"inconclusive: 12.6 µM [inhibitor, single point]"
4,O=C(COc1ccccc1[N+](=O)[O-])Nc1ccc2c(c1)OCO2,"inconclusive: 12.6 µM [inhibitor, single point]"
5,CC1(c2ccc3ccccc3c2)NC(=O)N(CC(=O)N2CCN(Cc3ccccc3)CC2)C1=O (stereo not given),"inconclusive: 10 µM [inhibitor, partial curve, poor fit]"
6,COCCNC(=O)c1cn(C)c2ccc(S(=O)(=O)N3CCCC3)cc2c1=O,"inconclusive: 12.6 µM [inhibitor, single point]"
7,O=C(Nc1cc(C(F)(F)F)ccc1-n1cncn1)c1ccc(Cl)cc1,inactive
8,CCOc1ccccc1/C=C/c1nc2ccccc2[nH]c1=O,inactive
9,COc1ccc(S(=O)(=O)N2CCCCC2)cc1NC(=O)c1ccc(CS(C)(=O)=O)cc1,"inconclusive: 1.41 µM [inhibitor, single point]"
10,CCCC(C(=O)c1ccccc1)n1cncn1 (stereo not given),inactive
11,COc1ncccc1-c1nnn(-c2ccccc2)n1,"inconclusive: 7.08 µM [inhibitor, partial curve, poor fit]"
12,CC(Sc1nnnn1C)C(=O)Nc1nc(-c2ccc(F)c(F)c2)cs1 (stereo not given),"inconclusive: 7.08 µM [inhibitor, partial curve, poor fit]"
13,CCn1c(/C=C\c2ccccc2C)nc2ccccc2c1=O,"inconclusive: 7.08 µM [inhibitor, single point]"
14,CSc1nnc(-c2ccc(Cl)cc2Cl)o1,inactive
15,COc1ccccc1/C=C/C(=O)NCc1cccnc1,"inconclusive: 5.01 µM [inhibitor, single point]"
16,N=c1n(CCN2CCCCC2)c2ccccc2n1CC(O)c1ccc(Cl)c(Cl)c1 (stereo not given),"inconclusive: 12.6 µM [inhibitor, single point]"
17,COc1ccc(-c2cc(-c3nc4ccccn4c3NCc3ccccc3)ccc2OC)cc1,active: 5.62 µM
18,CC(N)C(=O)NC(C(=O)N1CCCC1C(=O)NC(c1ccccc1)c1ccccc1)C(C)C (stereo not given),"inconclusive: 10 µM [inhibitor, partial curve]"
19,O=C(Nc1ccc(-n2cccn2)cc1)C1CCCCN1Cc1cccc2c1OCO2 (stereo not given),"inconclusive: 3.16 µM [inhibitor, partial curve, poor fit]"
20,CC(=O)O/N=C(\N)Cc1ccc(-c2csnn2)cc1,"inconclusive: 3.55 µM [inhibitor, partial curve, poor fit]"
21,C/C(=N\NC(=O)c1ccc(N2CCCC2=O)cc1)c1ccc(O)cc1O,"inconclusive: 10 µM [inhibitor, single point]"
